This is one part of the list. Shown are side measurements of this screen, not its main read-out; they come without a call. Most of these compounds were active or inconclusive in the main read-out, so they are no random draw. Words in brackets tell the shape of the fitted curve; partial curves, single points and poor fits give uncertain potencies.
Assay: qHTS Assay for Modulators of Lamin A Splicing
Conditions: HeLa LMNA splicing GFP/RFP minigene ratio, 48 h
Method in brief: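 Read-out is the ratio of GFP to DsRed2 object intensity, acquired by 488 nm laser-scanning cytometry on HeLa lamin A-EGFP minigene reporter cells. Compound incubation 48 hrs at 37 °C in Opti-MEM with 2% FBS; DMSO 0.5% final.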

[1] = measured here: GFP splicing reporter channel
[2] = measured here: RFP viability control channel

Compound: CC(C)c1ccc(/C=C/C(=O)Nc2nn[nH]n2)cc1
- AC50 [1]: 1 µM [rising, partial curve, poor fit]

Compound: O=C(N/N=C/c1ccc(-c2ccccc2[N+](=O)[O-])o1)[C@H]1C[C@@H]1c1ccccc1
- AC50 [2]: 31.6 µM [rising, single point]

Compound: CC1=C(C(=O)Nc2cccc(F)c2)C2(CCCCC2)OC1=O
- AC50 [1]: 0.0316 µM [rising, full curve, poor fit]

Compound: CCCC(=O)NC(=S)NNC(=O)c1ccc([N+](=O)[O-])cc1
- AC50 [2]: 12.6 µM [rising, single point]

Compound: CCCCCCC(=O)N(O)C1CC(=O)N(c2ccccc2)C1=O (centres undefined)
- AC50 [1]: 35.5 µM [falling, single point]
- AC50 [2]: 5.01 µM [rising, single point]

Compound: O=C(O/N=C(\c1ccccc1)c1ccncc1)c1ccccc1Cl
- AC50 [1]: 4.47 µM [rising, partial curve, poor fit]

Compound: COC(=O)c1cc(-c2ccc(NC(C)=O)cc2)nc2ccccc12
- AC50 [1]: 31.6 µM [falling, single point]

Compound: CN(c1ccccc1)c1ccc(/C=C(\C#N)c2nnc3n2CCCCC3)cc1[N+](=O)[O-]
- AC50 [2]: 20 µM [rising, partial curve]

Compound: Cc1cccc(S(=O)(=O)C(C#N)c2nc3ccccc3nc2N2CC(C)OC(C)C2)c1 (centres undefined)
- AC50 [2]: 11.2 µM [rising, partial curve]

Compound: COc1ccc(CNC(=O)c2cc(-c3ccc(OC)c(OC)c3)nc3n[nH]c(-c4ccc(C)cc4)c23)cc1
- AC50 [2]: 11.2 µM [falling, partial curve]

Compound: O=C(c1ccc2c(c1)OCO2)N1CCCc2ccccc21
- AC50 [2]: 11.2 µM [rising, partial curve, poor fit]

Compound: COc1cccc(Cn2c(=O)c(-c3cn(C)c4ccccc34)nc3cnc(N4CCNCC4)nc32)c1
- AC50 [1]: 28.2 µM [falling, single point]
- AC50 [2]: 25.1 µM [falling, single point]

Compound: c1ccc(-c2csc(=Nc3cccnc3)n2CC2CCCO2)cc1 (centres undefined)
- AC50 [2]: 12.6 µM [rising, partial curve]

Compound: COc1ccc(CC(=O)NCc2n[nH]c(=S)n2-c2ccc(F)cc2)cc1
- AC50 [1]: 0.0447 µM [rising, full curve]

Compound: O=C(CSc1ccc2nc(-c3ccccc3)cn2n1)Nc1ccccc1
- AC50 [1]: 0.0501 µM [rising, full curve]

Compound: CCCOc1ccc(OC(=O)c2ccc(Br)o2)cc1
- AC50 [1]: 35.5 µM [falling, single point]

Compound: CC(C)N1CCC(N2CCN(CCCn3cccn3)CC2CCO)CC1 (centres undefined)
- AC50 [2]: 0.0224 µM [falling, full curve, poor fit]

Compound: O=C(NNC(=O)c1cccc(S(=O)(=O)N2CCN(c3ccccc3)CC2)c1)c1ccc(Cl)cc1
- AC50 [2]: 35.5 µM [rising, single point]

Compound: CCN(CC)C(=O)C(=O)c1cn(CC(=O)NCc2ccc3c(c2)OCO3)c2ccccc12
- AC50 [1]: 1.58 µM [rising, partial curve, poor fit]

Compound: O=c1c(N2CCN(c3ccc(F)cc3)CC2)csc2ccc(F)cc12
- AC50 [2]: 10 µM [rising, partial curve]

Compound: O=C(Nc1nc(-c2ccc(S(=O)(=O)N3CCCCCC3)cc2)cs1)c1ccccc1
- AC50 [2]: 3.98 µM [rising, single point]

Compound: c1ccc(Nc2nc3ccccc3n3cnnc23)cc1
- AC50 [2]: 15.8 µM [rising, single point]

Compound: COc1ccccc1-c1nc2cc3ccccc3cc2nc1-c1ccccc1
- AC50 [1]: 10 µM [rising, partial curve]
- AC50 [2]: 11.2 µM [rising, partial curve]

Compound: COc1ccc2nc(N3CCN(C(=O)CS(=O)(=O)c4ccc(C)cc4)CC3)sc2c1
- AC50 [1]: 10 µM [falling, partial curve]

Compound: Cc1ccc(-c2cc(C(=O)N/N=C/c3c[nH]c4ccccc34)[nH]n2)cc1
- AC50 [2]: 4.47 µM [rising, full curve, poor fit]

Compound: C[C@@H](C(=O)OCC(=O)NCCc1ccc(S(N)(=O)=O)cc1)N1C(=O)C2CCCCC2C1=O (some centres undefined)
- AC50 [2]: 0.794 µM [falling, full curve]

Compound: COc1ccc(C)cc1NC1(c2ccccc2)C(=O)c2ccccc2C1=O
- AC50 [1]: 0.0316 µM [falling, full curve, poor fit]

Compound: O=c1nc(/C=C/c2ccc(-c3ccc(F)cc3)o2)cc(C(F)(F)F)[nH]1
- AC50 [2]: 3.16 µM [rising, single point]

Compound: CCOc1ccc(CCNC(=O)CN2CCN(Cc3ccccc3C)C2=O)cc1OCC
- AC50 [2]: 35.5 µM [rising, single point]

Compound: Cc1cccc(OCC(=O)Nc2ccc3c(c2)nc(CCN2CCN(C)CC2)n3C)c1
- AC50 [1]: 11.2 µM [rising, partial curve]
- AC50 [2]: 14.1 µM [rising, single point]

Compound: O=S(=O)(Cc1ccccc1)N1CCCC(c2nc(-c3ccc(F)cc3)no2)C1 (centres undefined)
- AC50 [2]: 14.1 µM [rising, single point]

Compound: c1ccc2c(C3=NNC(=NC4CC4)SC3)c[nH]c2c1
- AC50 [1]: 8.91 µM [rising, partial curve]
- AC50 [2]: 15.8 µM [rising, partial curve, poor fit]

Compound: CCCN(CCC)C(=O)CSc1nc2n[nH]c(C)c2c(=N)n1-c1ccc(OCC)cc1
- AC50 [2]: 31.6 µM [rising, single point]

Compound: CCNc1ncc2nc(-c3cn(C)c4ccccc34)c(=O)n(Cc3cccs3)c2n1
- AC50 [1]: 4.47 µM [falling, partial curve]

Compound: C=CCn1c(COc2ccccc2)nnc1SCC(=O)N/N=C/c1cc(Cl)ccc1O
- AC50 [2]: 35.5 µM [rising, single point]

Compound: Cc1ccc(-n2nnnc2CSc2nnc(-c3ccc(O)cc3)o2)cc1
- AC50 [1]: 0.00794 µM [falling, full curve, poor fit]

Compound: CC(C)CCNC(=S)Nc1ccc(Br)cc1
- AC50 [1]: 35.5 µM [rising, single point]
- AC50 [2]: 35.5 µM [rising, single point]

Compound: Cc1cc(C)c(C(=O)CSc2nc3ccccc3c(=O)[nH]2)cc1C
- AC50 [2]: 0.00398 µM [falling, full curve, poor fit]
